Results published in US20250145665A1, “MACROCYCLIC PEPTIDES USEFUL AS MODULATORS OF TNF ALPHA” (Bristol-Myers Squibb Company, priority 2023, published 2025).
Some results were stated once for a whole list of compounds, not compound by compound. Positions of bridges follow the written chain, without caps; N, C: chain ends. Non-standard residues stand in square brackets, D forms with d. Residues, ends and D or L forms follow the SMILES beside them. Bip(4'-COOH) = N[C@@H](Cc1ccc(-c2ccc(C(=O)O)cc2)cc1)C(=O)O; Bip(4'-NHAc) = CC(=O)Nc1ccc(-c2ccc(C[C@H](N)C(=O)O)cc2)cc1; Ala(morpholin-4-yl) = N[C@@H](CN1CCOCC1)C(=O)O; Phe(3-CONH2) = NC(=O)c1cccc(C[C@H](N)C(=O)O)c1; Bip = N[C@@H](Cc1ccc(-c2ccccc2)cc1)C(=O)O; Phe(2-Me) = Cc1ccccc1C[C@H](N)C(=O)O; Val(3-OH) = CC(C)(O)[C@H](N)C(=O)O; 2Pal = N[C@@H](Cc1ccccn1)C(=O)O; Chg = N[C@H](C(=O)O)C1CCCCC1; Sar = CNCC(=O)O

Amino acid sequences for entries named in this document (tags omitted). Residues count along the entry.
UniProt P01375, 77-233 limits assumed: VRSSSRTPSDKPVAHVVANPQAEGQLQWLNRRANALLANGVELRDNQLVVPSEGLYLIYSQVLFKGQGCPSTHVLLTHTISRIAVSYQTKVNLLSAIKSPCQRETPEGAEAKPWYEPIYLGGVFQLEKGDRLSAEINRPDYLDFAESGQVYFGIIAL

target: TNFα (Homo sapiens, UniProt P01375); assay: TNF-Induced HEK-Blue Assay; type: cell-based; details: summary statement for all examples; read-out: IC50 values measured in the TNF induced HEK-Blue assay

IC50, ≤ 25 µM:
CC(=O)Nc1ccc(-c2ccc(C[C@@H]3NC(=O)[C@H](Cc4ccc(-c5ccccc5)cc4)NC(=O)[C@H](C(C)(C)O)NC(=O)CSC[C@@H](C(=O)NCC(N)=O)NC(=O)[C@H](CC(C)C)NC(=O)[C@H](Cc4ccc(O)cc4)NC(=O)[C@H](C(C)C)NC(=O)[C@@H]4CCCN4C(=O)[C@H](C(C)C)NC(=O)[C@H](CCCNC(=N)N)NC(=O)[C@H](CC(=O)O)NC(=O)[C@@H]4CCCN4C(=O)CN(C)C3=O)cc2)cc1 [Example 194] ({CH2CO}-[Val(3-OH)][Bip][Bip(4'-NHAc)][Sar]PDRVPVYLCG-NH2; thioether N-13)
CC(=O)Nc1ccc(-c2ccc(C[C@@H]3NC(=O)[C@H](Cc4ccc(-c5ccccc5)cc4)NC(=O)[C@H](CN4CCOCC4)NC(=O)CSC[C@@H](C(=O)NCC(N)=O)NC(=O)[C@H](CC(C)C)NC(=O)[C@H](CCCNC(=N)N)NC(=O)[C@H](C(C)C)NC(=O)[C@@H]4CCCN4C(=O)[C@H](C(C)C)NC(=O)[C@@H](CCCNC(=N)N)NC(=O)[C@H](CC(=O)O)NC(=O)[C@H](Cc4ccc(O)cc4)NC(=O)CN(C)C3=O)cc2)cc1 [Example 195] ({CH2CO}-[Ala(morpholin-4-yl)][Bip][Bip(4'-NHAc)][Sar]YD[dR]VPVRLCG-NH2; thioether N-13)
CC(=O)Nc1ccc(-c2ccc(C[C@@H]3NC(=O)[C@H](Cc4ccc(-c5ccccc5)cc4)NC(=O)[C@H](CN4CCOCC4)NC(=O)CSC[C@@H](C(=O)NCC(N)=O)NC(=O)[C@H](CC(C)C)NC(=O)[C@H](Cc4ccc(O)cc4)NC(=O)[C@H](C(C)C)NC(=O)[C@@H]4CCCN4C(=O)[C@H](C(C)C)NC(=O)[C@H](CCCNC(=N)N)NC(=O)[C@H](CC(=O)O)NC(=O)[C@@H]4CCCN4C(=O)CN(C)C3=O)cc2)cc1 [Example 196] ({CH2CO}-[Ala(morpholin-4-yl)][Bip][Bip(4'-NHAc)][Sar]PDRVPVYLCG-NH2; thioether N-13)
CC(=O)Nc1ccc(-c2ccc(C[C@@H]3NC(=O)[C@H](Cc4ccc(-c5ccccc5)cc4)NC(=O)[C@H](Cc4c[nH]c5ccccc45)NC(=O)CSC[C@@H](C(=O)NCC(N)=O)NC(=O)[C@H](CC(C)C)NC(=O)[C@H](Cc4ccc(O)cc4)NC(=O)[C@H](C(C)C)NC(=O)[C@@H]4CCCN4C(=O)[C@H](C(C)C)NC(=O)[C@@H](CCCNC(=N)N)NC(=O)[C@H](CC(=O)O)NC(=O)[C@H](Cc4ccccn4)NC(=O)CN(C)C3=O)cc2)cc1 [Example 197] ({CH2CO}-W[Bip][Bip(4'-NHAc)][Sar][2Pal]D[dR]VPVYLCG-NH2; thioether N-13)
CC(=O)Nc1ccc(-c2ccc(C[C@@H]3NC(=O)[C@H](Cc4ccc(-c5ccc(C(=O)O)cc5)cc4)NC(=O)[C@H](CN4CCOCC4)NC(=O)CSC[C@@H](C(=O)NCC(N)=O)NC(=O)[C@H](CC(C)C)NC(=O)[C@H](CCCNC(=N)N)NC(=O)[C@H](C)NC(=O)[C@@H]4CCCN4C(=O)[C@H](C(C)C)NC(=O)[C@@H](CCCNC(=N)N)NC(=O)[C@H](CC(=O)O)NC(=O)[C@@H]4CCCN4C(=O)CN(C)C3=O)cc2)cc1 [Example 198] ({CH2CO}-[Ala(morpholin-4-yl)][Bip(4'-COOH)][Bip(4'-NHAc)][Sar]PD[dR]VPARLCG-NH2; thioether N-13)
CC(=O)Nc1ccc(-c2ccc(C[C@@H]3NC(=O)[C@H](Cc4ccc(-c5ccc(C(=O)O)cc5)cc4)NC(=O)[C@H](CN4CCOCC4)NC(=O)CSC[C@@H](C(=O)NCC(N)=O)NC(=O)[C@H](CC(C)C)NC(=O)[C@H](Cc4ccccc4C)NC(=O)[C@H](C(C)C)NC(=O)[C@@H]4CCCN4C(=O)[C@H](C(C)C)NC(=O)[C@@H](CCCNC(=N)N)NC(=O)[C@H](CC(=O)O)NC(=O)[C@H](Cc4ccccn4)NC(=O)CN(C)C3=O)cc2)cc1 [Example 199] ({CH2CO}-[Ala(morpholin-4-yl)][Bip(4'-COOH)][Bip(4'-NHAc)][Sar][2Pal]D[dR]VPV[Phe(2-Me)]LCG-NH2; thioether N-13)
CC(=O)Nc1ccc(-c2ccc(C[C@@H]3NC(=O)[C@H](Cc4ccc(-c5ccc(C(=O)O)cc5)cc4)NC(=O)[C@H](CN4CCOCC4)NC(=O)CSC[C@@H](C(=O)NCC(N)=O)NC(=O)[C@H](CC(C)C)NC(=O)[C@H](Cc4cccc(C(N)=O)c4)NC(=O)[C@H](C(C)C)NC(=O)[C@@H]4CCCN4C(=O)[C@H](C(C)C)NC(=O)[C@@H](CCCNC(=N)N)NC(=O)[C@H](CC(=O)O)NC(=O)[C@H](Cc4ccccn4)NC(=O)CN(C)C3=O)cc2)cc1 [Example 200] ({CH2CO}-[Ala(morpholin-4-yl)][Bip(4'-COOH)][Bip(4'-NHAc)][Sar][2Pal]D[dR]VPV[Phe(3-CONH2)]LCG-NH2; thioether N-13)
CC(=O)Nc1ccc(-c2ccc(C[C@@H]3NC(=O)[C@H](Cc4ccc(-c5ccccc5)cc4)NC(=O)[C@H](CN4CCOCC4)NC(=O)CSC[C@@H](C(=O)NCC(N)=O)NC(=O)[C@H](CC(C)C)NC(=O)[C@H](CCCNC(=N)N)NC(=O)[C@H](C4CCCCC4)NC(=O)[C@@H]4CCCN4C(=O)[C@H](C(C)C)NC(=O)[C@@H](CCCNC(=N)N)NC(=O)[C@H](CC(=O)O)NC(=O)[C@H](Cc4ccccn4)NC(=O)CN(C)C3=O)cc2)cc1 [Example 201] ({CH2CO}-[Ala(morpholin-4-yl)][Bip][Bip(4'-NHAc)][Sar][2Pal]D[dR]VP[Chg]RLCG-NH2; thioether N-13)
CC(C)C[C@@H]1NC(=O)[C@H](CCCNC(=N)N)NC(=O)[C@H](C(C)C)NC(=O)[C@@H]2CCCN2C(=O)[C@H](C(C)C)NC(=O)[C@@H](CCCNC(=N)N)NC(=O)[C@H](CC(=O)O)NC(=O)[C@@H]2CCCN2C(=O)CN(C)C(=O)[C@H](Cc2ccc(-c3ccccc3)cc2)NC(=O)[C@H](Cc2ccc(-c3ccccc3)cc2)NC(=O)[C@H](CN2CCOCC2)NC(=O)CSC[C@@H](C(=O)NCC(N)=O)NC1=O [Example 202] ({CH2CO}-[Ala(morpholin-4-yl)][Bip][Bip][Sar]PD[dR]VPVRLCG-NH2; thioether N-13)
CC(=O)Nc1ccc(-c2ccc(C[C@@H]3NC(=O)[C@H](Cc4ccc(-c5ccccc5)cc4)NC(=O)[C@H](CN4CCOCC4)NC(=O)CSC[C@@H](C(=O)NCC(N)=O)NC(=O)[C@H](CC(C)C)NC(=O)[C@H](CCCNC(=N)N)NC(=O)[C@H](C(C)C)NC(=O)[C@@H]4CCCN4C(=O)[C@H](C(C)C)NC(=O)[C@@H](CCCNC(=N)N)NC(=O)[C@H](CC(=O)O)NC(=O)[C@H](Cc4ccccn4)NC(=O)CN(C)C3=O)cc2)cc1 [Example 203] ({CH2CO}-[Ala(morpholin-4-yl)][Bip][Bip(4'-NHAc)][Sar][2Pal]D[dR]VPVRLCG-NH2; thioether N-13)
CC(C)C[C@@H]1NC(=O)[C@H](CCCNC(=N)N)NC(=O)[C@H](C2CCCCC2)NC(=O)[C@@H]2CCCN2C(=O)[C@H](C(C)C)NC(=O)[C@@H](CCCNC(=N)N)NC(=O)[C@H](CC(=O)O)NC(=O)[C@H](Cc2ccccn2)NC(=O)CN(C)C(=O)[C@H](Cc2ccc(-c3ccccc3)cc2)NC(=O)[C@H](Cc2ccc(-c3ccccc3)cc2)NC(=O)[C@H](CN2CCOCC2)NC(=O)CSC[C@@H](C(=O)NCC(N)=O)NC1=O [Example 204] ({CH2CO}-[Ala(morpholin-4-yl)][Bip][Bip][Sar][2Pal]D[dR]VP[Chg]RLCG-NH2; thioether N-13)
CC(C)C[C@@H]1NC(=O)[C@H](CCCNC(=N)N)NC(=O)[C@H](C(C)C)NC(=O)[C@@H]2CCCN2C(=O)[C@H](C(C)C)NC(=O)[C@@H](CCCNC(=N)N)NC(=O)[C@H](CC(=O)O)NC(=O)[C@H](Cc2ccccn2)NC(=O)CN(C)C(=O)[C@H](Cc2ccc(-c3ccccc3)cc2)NC(=O)[C@H](Cc2ccc(-c3ccccc3)cc2)NC(=O)[C@H](CN2CCOCC2)NC(=O)CSC[C@@H](C(=O)NCC(N)=O)NC1=O [Example 205] ({CH2CO}-[Ala(morpholin-4-yl)][Bip][Bip][Sar][2Pal]D[dR]VPVRLCG-NH2; thioether N-13)
CC(C)C[C@@H]1NC(=O)[C@H](CCCNC(=N)N)NC(=O)[C@H](C2CCCCC2)NC(=O)[C@@H]2CCCN2C(=O)[C@H](C(C)C)NC(=O)[C@@H](CCCNC(=N)N)NC(=O)[C@H](CC(=O)O)NC(=O)[C@@H]2CCCN2C(=O)CN(C)C(=O)[C@H](Cc2ccc(-c3ccccc3)cc2)NC(=O)[C@H](Cc2ccc(-c3ccccc3)cc2)NC(=O)[C@H](CN2CCOCC2)NC(=O)CSC[C@@H](C(=O)NCC(N)=O)NC1=O [Example 206] ({CH2CO}-[Ala(morpholin-4-yl)][Bip][Bip][Sar]PD[dR]VP[Chg]RLCG-NH2; thioether N-13)
CC(C)C[C@@H]1NC(=O)[C@H](CCCNC(=N)N)NC(=O)[C@H](C2CCCCC2)NC(=O)[C@@H]2CCCN2C(=O)[C@H](C(C)C)NC(=O)[C@H](CCCNC(=N)N)NC(=O)[C@H](CC(=O)O)NC(=O)[C@@H]2CCCN2C(=O)CN(C)C(=O)[C@H](Cc2ccc(-c3ccccc3)cc2)NC(=O)[C@H](Cc2ccc(-c3ccccc3)cc2)NC(=O)[C@H](CN2CCOCC2)NC(=O)CSC[C@@H](C(=O)NCC(N)=O)NC1=O [Example 207] ({CH2CO}-[Ala(morpholin-4-yl)][Bip][Bip][Sar]PDRVP[Chg]RLCG-NH2; thioether N-13)
CC(=O)Nc1ccc(-c2ccc(C[C@@H]3NC(=O)[C@H](Cc4ccc(-c5ccccc5)cc4)NC(=O)[C@H](CN4CCOCC4)NC(=O)CSC[C@@H](C(=O)NCC(N)=O)NC(=O)[C@H](CC(C)C)NC(=O)[C@H](Cc4ccc(O)cc4)NC(=O)[C@H](C(C)C)NC(=O)[C@@H]4CCCN4C(=O)[C@H](C(C)C)NC(=O)[C@H](CCCNC(=N)N)NC(=O)[C@H](CC(=O)O)NC(=O)[C@H](Cc4ccccn4)NC(=O)CN(C)C3=O)cc2)cc1 [Example 208] ({CH2CO}-[Ala(morpholin-4-yl)][Bip][Bip(4'-NHAc)][Sar][2Pal]DRVPVYLCG-NH2; thioether N-13)
CC(C)C[C@@H]1NC(=O)[C@H](Cc2ccc(O)cc2)NC(=O)[C@H](C2CCCCC2)NC(=O)[C@@H]2CCCN2C(=O)[C@H](C(C)C)NC(=O)[C@@H](CCCNC(=N)N)NC(=O)[C@H](CC(=O)O)NC(=O)[C@@H]2CCCN2C(=O)CN(C)C(=O)[C@H](Cc2ccc(-c3ccccc3)cc2)NC(=O)[C@H](Cc2ccc(-c3ccccc3)cc2)NC(=O)[C@H](CN2CCOCC2)NC(=O)CSC[C@@H](C(=O)NCC(N)=O)NC1=O [Example 209] ({CH2CO}-[Ala(morpholin-4-yl)][Bip][Bip][Sar]PD[dR]VP[Chg]YLCG-NH2; thioether N-13)
